Data taken from publication PMC7360861.
No constants are given. Whether binding was seen depends on the method and setting. In cells and extracts the contact can be indirect. Some binding calls cover weakened binding; strength is not graded here.

Protein sequences, listed by entry. Tags and fused reporters are not part of them. Residues count along the entry.
UniProt P02768, residues 25-609: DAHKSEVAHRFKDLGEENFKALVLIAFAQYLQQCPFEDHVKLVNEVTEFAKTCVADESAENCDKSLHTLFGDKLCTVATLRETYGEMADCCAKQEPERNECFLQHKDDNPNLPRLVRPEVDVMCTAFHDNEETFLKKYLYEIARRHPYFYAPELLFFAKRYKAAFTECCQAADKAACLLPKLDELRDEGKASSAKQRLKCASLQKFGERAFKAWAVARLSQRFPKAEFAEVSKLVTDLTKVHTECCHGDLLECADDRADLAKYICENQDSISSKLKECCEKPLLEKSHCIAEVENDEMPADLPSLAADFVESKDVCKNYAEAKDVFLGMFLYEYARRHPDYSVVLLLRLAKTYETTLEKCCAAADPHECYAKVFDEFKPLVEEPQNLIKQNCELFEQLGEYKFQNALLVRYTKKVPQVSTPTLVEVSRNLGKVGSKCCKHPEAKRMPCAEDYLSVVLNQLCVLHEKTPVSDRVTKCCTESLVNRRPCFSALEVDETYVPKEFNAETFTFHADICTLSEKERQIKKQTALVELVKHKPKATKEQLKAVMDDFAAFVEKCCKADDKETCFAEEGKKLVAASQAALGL

B1: secreted protein acidic and rich in cysteine (SPARC) (protein, UniProt P09486 18-303)
chain: APQQEALPDETEVVEETVAEVTEVSVGANPVQVEVGEFDDGAEETEEEVVAENPCQNHHCKHGKVCELDENNTPMCVCQDPTSCPAPIGEFEKVCSNDNKTFDSSCHFFATKCTLEGTKKGHKLHLDYIGPCKYIPPCLDSELTEFPLRMRDWLKNVLVTLYERDEDNNLLTEKQKLRVKKIHENEKRLEAGDHPVELLARDFEKNYNMYIFPVHWQFGQLDQHPIDGYLSHTELAPLRAPLIPMEHCTTRFFETCDLDNDKYIALDEWAGCFGIKQKDIDKDLVI

How the values were obtained:
[1] = target: T1, secreted protein acidic and rich in cysteine (SPARC) (human (endogenous in HS578T)) (UniProt P09486); assay: co-IP; 10 and 50 ug rHSA added to 500 ug HS578T cytosolic extract; immunoprecipitated with 4 ug anti-SPARC antibody, 16 h at 4 C; protein G-agarose; washed four times with cold PBS; Western blot with anti-HSA antibody; only the binder purified
T1 sequence: B1 chain

[2] = target: recombinant Human Serum Albumin (rHSA) (human) (UniProt P02768); assay: pull-down; rHSA covalently conjugated to MelaSil_Ag nanoparticles (100 ug) incubated in HS578T conditioned medium at 37 C under stirring for 24 h; washed three times with PBS; bound proteins eluted in Laemmli buffer, SDS-PAGE, Western blot with anti-SPARC antibody; only the target purified

Row | Molecule | binding [1] | binding [2]
1 | recombinant Human Serum Albumin (rHSA) (from UniProt P02768 25-609) | binds | –
2 | B1 | – | binds
